Tested on: colon
Test: Comparative Example 2: randomized, single-blind study of L-glucose as bowel preparation before colonoscopy (GPA scale)
Set-up: species or system human
Conditions: in vivo
Procedure: Global Preparation Assessment
Excellent=clean colon or small volume of clear liquid
Good=moderate to large volume of clear to semiclear liquid
Fair=some semisolid stool suctioned or washed away
Poor=semisolid or solid stool unable to be suctioned or washed away
A randomized, single-blind study designed to determine the clinical effectiveness of L-glucose as a bowel preparation before colonoscopy was performed. Three dose regimens were evaluated: 24 g in the evening only, 30 g in the evening only, and 24 g in the evening followed by 12 g in the morning (36 g total). Here, Applicant's GPA scale described herein was used to evaluate the preparations. […] Clinical efficacy (defined as a combination of “excellent” and “good” assessments) for the split-dose schedule was 19/27 (70%), as compared to 7/31 (23%) in the single-dose schedule (p<0.001).
As noted above in the description of Applicant's GPA scale, the criteria for determining whether a preparation was deemed “excellent” or “good” was respectively defined as “clean colon or small volume of clear liquid” or “moderate to large volume of clear to semi-clear liquid.” These criteria are more stringent than the rating system used by Raymer et al. discussed supra since Raymer's “excellent” and “good” ratings were respectively defined as “no more than small bits of adherent fecal fluid” and “small amounts of feces or fluid not interfering with the examination.” Thus, Raymer's “excellent” rating would likely not qualify as even a “good” rating in Applicant's GPA scale.

## O=C[C@@H](O)[C@H](O)[C@@H](O)[C@@H](O)CO [L-glucose]
  Ease of use of the cleansing solution, nearly all subjects: easy and convenient to use
  Taste rating: very pleasant to somewhat pleasant
  Willingness to repeat the regimen: most subjects reported they were willing to repeat the regimen

Reference: US8618067B2, “L-sugar colon cleansing agent and uses thereof” (Aptalis Pharma US, Inc., priority 2009, dated 2013)
